Experimental data reported in the odorant receptor screen of Mainland et al. (2015).
Several values for one entry are separate records, joined by “and”; a condition that tells them apart may be missing. Identical values can stand only once. This is one part of the list. Single wells; the ratio to wells without odorant was worked out here, and repeats agree poorly.

Experiments:
Assay in all cases: odorant receptor activation (CRE luciferase / Renilla) (fold of no-odor wells); higher = more activation
Settings in all cases: 100 µM
[1] = test system: OR2J2 Y74H/T111A/V146A/T218A clone 1402
[2] = test system: OR2J2 clone 1403
[3] = test system: OR2J2 clone 1404
[4] = test system: OR2J3 I228V/M261I clone 1616
[5] = test system: OR2K2 clone 1340
[6] = test system: OR2K2 clone 1450
[7] = test system: OR2L13 clone 1481
[8] = test system: OR2L2 clone 1465
[9] = test system: OR2L3 clone 1526
[10] = test system: OR2L5 clone 1697

SMILES	odorant receptor activation [1]	odorant receptor activation [2]	odorant receptor activation [3]	odorant receptor activation [4]	odorant receptor activation [5]	odorant receptor activation [6]	odorant receptor activation [7]	odorant receptor activation [8]	odorant receptor activation [9]	odorant receptor activation [10]
COc1ccccc1O [guaiacol]	0.704	0.72	0.974	1.12	0.795 and 1.11	0.94	1.19 and 1	1.27 and 1.2	0.719 and 0.948	0.692
C=CCSCC=C [diallyl sulfide]	1.18	1.07	1.07	1.34	1.04	1.17	1.13	1.33	1.35	0.834
CCCCCOC(C)=O [n-amyl acetate]	0.748	0.981	0.737	0.662	0.756	0.658 and 0.845	0.678 and 0.989	0.507 and 0.972	0.734 and 0.856	1.01
C=CCc1ccc(OC)c(OC)c1 [eugenol methyl ether]	1.81	1.4	2.76	1.77	1.59	1.55	1.41	1.33	1.44	0.864
CC12CCC(C1)C(C)(C)C2=O (stereo not drawn) [fenchone]	0.949	0.944	1.1	1.03	1.07	0.931	1.31	1.09	1.05	0.834
CC(C)C=O [isobutyraldehyde]	0.839	0.703	0.686	0.65	0.891 and 0.761	1.05	1.15 and 1.03	0.979 and 1.13	0.852 and 1.01	0.72
CCCCCCCOC(C)=O [heptyl acetate]	0.958	0.872	1.3	1.2	0.933 and 1.07	1.14	0.926 and 1.11	0.934 and 1.3	0.708 and 1.17	0.695
C=CC(C)(O)CCC=C(C)C (stereo not drawn) [linalool]	0.876	0.979	0.839	1	0.836	0.959	0.736	1.08	1.02	0.817
CCCCCCOC(=O)CCC [hexyl butyrate]	0.747	0.852	0.802	1.11	1.12 and 0.671	0.943	0.816 and 0.933	1.29 and 0.979	1.2 and 0.925	1.03
CCC1(O)C2(C)CCC(C2)C1(C)C (stereo not drawn) [2-ethylfenchol]	0.549	0.401	0.913	1.1	0.481	0.627	1.2	1.27	1.34	0.774
O=CCc1ccccc1 [phenyl acetaldehyde]	1.11	1.45	1.88	1.47	0.885	1.16	1.24	1.61	0.997	2.34
c1ccc(Oc2ccccc2)cc1 [diphenyl ether]	1.19	1.12	1.32	1.47	0.954	1.03	1.09	1.37	0.88	0.818
CC(C)CCC(=O)O [4-methylvaleric acid]	2	0.84	1.49	1.04	0.781	1.01	0.976	0.959	1.15	0.733
CC1CCC(C(C)C)C(O)C1 (single isomer, unassigned; (-)) [(-)-menthol]	0.676	0.803	0.849	1.8	0.225	1.21	1.53	3.44	3.65	0.74
CC(=O)OC(C)(C)C1CC=C(C)CC1 (stereo not drawn) [terpinyl acetate]	0.881	0.781	0.92	0.814	0.674	0.806	0.881	1.19	1	1.06
CCCCCCCCCCC=O [undecanal]	0.898	1.41	1.25	0.847	0.815	0.821	0.976	1.33	0.894	0.978
CCCCCCCCCC=O [decyl aldehyde]	1.32	1.58	1.76	3.47	1.24	1.5	1.57	0.986	1.01	0.825
CCCCCC(=O)O [caproic acid]	0.267	0.305	0.336	0.907	0.851	0.16	0.835	0.933	0.883	0.871
C=C(C)C1CC=C(C)C(=O)C1 (stereo not drawn) [r-carvone]	1.07	1.37	1.53	1.34	0.613	0.937	1.01	0.903	1.06	0.989
C=C(C)C1CC=CCC1 (stereo not drawn) [r-limonene]	2.39 and 0.908	1.31 and 1.17	1.64 and 0.963	1.33	0.793 and 0.532	1.15 and 0.543 and 0.847	0.951 and 0.552 and 0.964	0.927 and 0.419 and 1.1	0.936 and 0.543 and 0.598	1.3
CC1=CCC(C(C)(C)O)CC1 (stereo not drawn) [terpineol]	0.985	1.08	1.41	1.81	0.744	0.849	0.854	0.854	0.898	1.05
CCCCCCCCOC(C)=O [octyl acetate]	0.961	0.805	0.995	2.1	1.12	0.8	0.775	0.935	0.909	1.02
O=C1CCCCCCCCCCCC(=O)OCCO1 [ethylene brassylate]	1.89	1.42	1.41	3.75	1.37	1.82	1.28	1.35	1.17	1.05

SMILES	odorant receptor activation [1]	odorant receptor activation [2]	odorant receptor activation [3]	odorant receptor activation [4]	odorant receptor activation [5]	odorant receptor activation [6]	odorant receptor activation [7]	odorant receptor activation [8]	odorant receptor activation [9]	odorant receptor activation [10]
CCCCO [1-butanol]	0.73	0.564	1.19	1.75	0.347	0.961	1.02	1.04	1.11	0.72
C=CCc1ccc(OC(C)=O)c(OC)c1 [eugenol acetate]	1.76	1.55	2.77	3.11	1.3	1.49	1.54	2.08	1.74	1.83
COc1cc(C=O)ccc1O [vanillin]	0.823	0.995	2.91	0.97	0.8	0.797	0.924	1.01	0.815	1.01
CCCC(=O)O [butyric acid]	0.303	0.311	0.356	0.999	0.765	0.198	0.9	1.24	0.974	0.86
CCCCCCCCC=O [nonyl aldehyde]	0.896	0.687	0.708	2.33	1.04	0.935	0.928	1.23	1.08	1.24
COC(=O)c1ccccc1O [methyl salicylate]	1.12	1.16	1.43	1.01	0.809	1.04	0.8	0.985	1.02	0.846
CCCCCCCC=O [octyl aldehyde]	0.769	0.756	0.97	1.62	1.03	0.782	0.943	1.04	0.969	0.818
CC1CCC(C(C)C)C(O)C1 (single isomer, unassigned; (+)) [(+)-menthol]	0.591	0.492	1.13	1.61	0.266	0.935	1.17	0.989	1.21	0.658
O=C1CCCCC1 [Cyclohexanone]	0.585	1.15	0.927		0.864	0.597 and 1.1	0.624 and 1.08	0.544 and 1.06	0.734 and 0.737	
CC(C)CC(=O)O [isovaleric acid]	0.898	0.866	0.927	0.826	0.791	1	0.74	0.958	0.871	0.898
CC12C=CCC1C1CCC3CC(=O)CCC3(C)C1CC2 (stereo not drawn) [androstenone]	0.888	0.678	1.32		1.08	0.652	0.99	0.994	1.2	
CC(=O)OC1CC2CCC1(C)C2(C)C (stereo not drawn) [isobornyl acetate]	0.864	0.887	0.932	0.798	1.06 and 0.804	1.12	1.07 and 0.987	1.08 and 1.44	1.06 and 1.08	0.913
COC(=O)c1ccccc1 [methyl benzoate]	0.597	1.01	0.937		0.917	0.741 and 1.04	0.891 and 1.24	0.451 and 1.12	0.562 and 0.949	
O=C1CCCCCCCCCCCCCCO1 [pentadecalactone]	0.954	1.28	1.39	1.4	0.714	1.09	1.07	1.21	0.702	0.917
CC=Cc1ccc(O)c(OC)c1 [isoeugenol]	1.28	1.35	1.74	2.11	2.14 and 1.8	1.37	1.09 and 2.12		1.61 and 1.79	3.04
CC(=O)C(C)=O [diacetyl]	1.26	1.06	1.41	1.51	0.909	1.29	1.33	1.45	1.18	0.782
CC/C=C\CCO [cis-3-hexen-1-ol]	0.252	0.307	0.334	1.06	1	0.179	0.83	1.01	0.668	1.18
COc1cc(C)ccc1O [2-methoxy-4-methylphenol]	0.979	0.591	3.93	1.38	0.877	0.99	0.899	0.893	1	0.87
CC(C)(C)c1ccc(CCC=O)cc1 [bourgeonal]	0.201	0.186	0.228		0.586	0.15	0.772	1.07	0.862	
C=CCc1ccc(O)c(OC)c1 [eugenol]	1.4 and 1.52	1.74 and 1.4	2.31 and 2.5	2.23	1.41 and 1.43	1.5 and 1.14 and 1.32	1.46 and 1.87 and 1.29	1.41 and 1.1 and 1.3	1.45 and 1.07 and 1.31	1.14
CC12CCC(CC1)C(C)(C)O2 [cineole]	0.26	0.26	0.302	1.12	1.06	0.182	0.956	0.931	0.815	0.965
C=C(C)C1CCC2=CC(=O)CC(C)C2(C)C1 (stereo not drawn) [amyl laurate]				0.69						1.66
